Laboratory results published in the supplement of paper PMC10849652.
The list shows a part of the results.

Sequences of proteins named here, by UniProt entry; tags and fusion partners are left off. A change or cut given only in a name is not applied to a line headed by its entry.
UniProt P53621: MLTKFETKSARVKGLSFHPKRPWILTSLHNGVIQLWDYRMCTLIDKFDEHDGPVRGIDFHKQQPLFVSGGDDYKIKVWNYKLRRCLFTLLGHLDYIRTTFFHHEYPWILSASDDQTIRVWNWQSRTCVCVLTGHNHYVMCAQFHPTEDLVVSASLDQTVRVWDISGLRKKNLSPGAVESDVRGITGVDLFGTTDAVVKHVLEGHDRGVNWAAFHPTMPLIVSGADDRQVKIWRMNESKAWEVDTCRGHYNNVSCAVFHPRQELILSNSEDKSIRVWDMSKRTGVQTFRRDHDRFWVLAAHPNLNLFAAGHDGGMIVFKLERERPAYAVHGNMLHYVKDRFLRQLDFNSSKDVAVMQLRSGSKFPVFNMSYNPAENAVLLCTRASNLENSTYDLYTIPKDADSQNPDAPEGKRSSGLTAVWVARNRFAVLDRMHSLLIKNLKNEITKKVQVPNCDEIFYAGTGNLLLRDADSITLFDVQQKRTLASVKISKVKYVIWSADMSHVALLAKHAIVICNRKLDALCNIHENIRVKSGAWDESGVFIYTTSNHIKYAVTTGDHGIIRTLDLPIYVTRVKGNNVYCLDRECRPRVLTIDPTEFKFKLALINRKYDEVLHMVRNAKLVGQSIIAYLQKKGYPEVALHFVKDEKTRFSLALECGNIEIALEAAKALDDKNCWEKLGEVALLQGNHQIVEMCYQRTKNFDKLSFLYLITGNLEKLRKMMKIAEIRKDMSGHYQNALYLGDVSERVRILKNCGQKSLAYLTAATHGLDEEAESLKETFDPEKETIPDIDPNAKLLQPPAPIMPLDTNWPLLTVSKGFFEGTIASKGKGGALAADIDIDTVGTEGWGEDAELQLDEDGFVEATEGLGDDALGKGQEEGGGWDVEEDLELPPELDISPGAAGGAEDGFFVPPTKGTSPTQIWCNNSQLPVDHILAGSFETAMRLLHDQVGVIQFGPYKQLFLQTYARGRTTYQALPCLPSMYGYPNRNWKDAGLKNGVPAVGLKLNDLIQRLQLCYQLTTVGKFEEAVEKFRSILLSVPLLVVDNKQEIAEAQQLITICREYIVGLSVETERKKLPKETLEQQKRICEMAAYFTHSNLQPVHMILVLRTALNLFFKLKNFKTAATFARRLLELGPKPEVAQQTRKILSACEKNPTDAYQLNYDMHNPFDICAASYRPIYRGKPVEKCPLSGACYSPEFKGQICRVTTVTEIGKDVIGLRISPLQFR
UniProt Q9Y6N1: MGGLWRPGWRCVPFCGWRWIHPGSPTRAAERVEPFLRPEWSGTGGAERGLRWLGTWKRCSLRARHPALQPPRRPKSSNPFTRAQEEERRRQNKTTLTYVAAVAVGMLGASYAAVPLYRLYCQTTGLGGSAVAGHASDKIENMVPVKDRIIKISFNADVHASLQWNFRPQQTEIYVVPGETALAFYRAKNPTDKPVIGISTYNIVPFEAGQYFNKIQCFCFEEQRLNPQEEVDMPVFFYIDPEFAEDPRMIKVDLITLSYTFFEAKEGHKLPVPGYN
UniProt Q86VU5: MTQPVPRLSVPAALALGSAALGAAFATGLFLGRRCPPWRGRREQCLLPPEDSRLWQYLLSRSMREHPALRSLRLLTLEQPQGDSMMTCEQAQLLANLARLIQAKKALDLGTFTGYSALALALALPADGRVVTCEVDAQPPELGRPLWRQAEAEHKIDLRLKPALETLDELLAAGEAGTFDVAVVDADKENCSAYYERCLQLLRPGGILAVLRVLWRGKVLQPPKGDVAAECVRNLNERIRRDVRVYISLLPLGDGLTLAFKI
UniProt Q8N8Q8: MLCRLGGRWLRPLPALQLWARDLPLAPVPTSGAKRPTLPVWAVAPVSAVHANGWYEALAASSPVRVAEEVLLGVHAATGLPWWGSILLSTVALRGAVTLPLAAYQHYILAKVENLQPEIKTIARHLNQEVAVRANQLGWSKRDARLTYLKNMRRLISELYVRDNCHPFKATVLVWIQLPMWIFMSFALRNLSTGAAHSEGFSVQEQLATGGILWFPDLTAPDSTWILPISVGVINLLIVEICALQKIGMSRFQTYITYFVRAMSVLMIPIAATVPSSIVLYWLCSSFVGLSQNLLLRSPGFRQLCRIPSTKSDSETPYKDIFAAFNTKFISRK
UniProt P61923: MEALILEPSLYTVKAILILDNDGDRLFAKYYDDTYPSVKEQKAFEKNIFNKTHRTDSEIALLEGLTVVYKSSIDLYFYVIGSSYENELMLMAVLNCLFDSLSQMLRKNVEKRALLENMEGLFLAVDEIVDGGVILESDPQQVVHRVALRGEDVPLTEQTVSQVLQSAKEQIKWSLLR
UniProt Q10570: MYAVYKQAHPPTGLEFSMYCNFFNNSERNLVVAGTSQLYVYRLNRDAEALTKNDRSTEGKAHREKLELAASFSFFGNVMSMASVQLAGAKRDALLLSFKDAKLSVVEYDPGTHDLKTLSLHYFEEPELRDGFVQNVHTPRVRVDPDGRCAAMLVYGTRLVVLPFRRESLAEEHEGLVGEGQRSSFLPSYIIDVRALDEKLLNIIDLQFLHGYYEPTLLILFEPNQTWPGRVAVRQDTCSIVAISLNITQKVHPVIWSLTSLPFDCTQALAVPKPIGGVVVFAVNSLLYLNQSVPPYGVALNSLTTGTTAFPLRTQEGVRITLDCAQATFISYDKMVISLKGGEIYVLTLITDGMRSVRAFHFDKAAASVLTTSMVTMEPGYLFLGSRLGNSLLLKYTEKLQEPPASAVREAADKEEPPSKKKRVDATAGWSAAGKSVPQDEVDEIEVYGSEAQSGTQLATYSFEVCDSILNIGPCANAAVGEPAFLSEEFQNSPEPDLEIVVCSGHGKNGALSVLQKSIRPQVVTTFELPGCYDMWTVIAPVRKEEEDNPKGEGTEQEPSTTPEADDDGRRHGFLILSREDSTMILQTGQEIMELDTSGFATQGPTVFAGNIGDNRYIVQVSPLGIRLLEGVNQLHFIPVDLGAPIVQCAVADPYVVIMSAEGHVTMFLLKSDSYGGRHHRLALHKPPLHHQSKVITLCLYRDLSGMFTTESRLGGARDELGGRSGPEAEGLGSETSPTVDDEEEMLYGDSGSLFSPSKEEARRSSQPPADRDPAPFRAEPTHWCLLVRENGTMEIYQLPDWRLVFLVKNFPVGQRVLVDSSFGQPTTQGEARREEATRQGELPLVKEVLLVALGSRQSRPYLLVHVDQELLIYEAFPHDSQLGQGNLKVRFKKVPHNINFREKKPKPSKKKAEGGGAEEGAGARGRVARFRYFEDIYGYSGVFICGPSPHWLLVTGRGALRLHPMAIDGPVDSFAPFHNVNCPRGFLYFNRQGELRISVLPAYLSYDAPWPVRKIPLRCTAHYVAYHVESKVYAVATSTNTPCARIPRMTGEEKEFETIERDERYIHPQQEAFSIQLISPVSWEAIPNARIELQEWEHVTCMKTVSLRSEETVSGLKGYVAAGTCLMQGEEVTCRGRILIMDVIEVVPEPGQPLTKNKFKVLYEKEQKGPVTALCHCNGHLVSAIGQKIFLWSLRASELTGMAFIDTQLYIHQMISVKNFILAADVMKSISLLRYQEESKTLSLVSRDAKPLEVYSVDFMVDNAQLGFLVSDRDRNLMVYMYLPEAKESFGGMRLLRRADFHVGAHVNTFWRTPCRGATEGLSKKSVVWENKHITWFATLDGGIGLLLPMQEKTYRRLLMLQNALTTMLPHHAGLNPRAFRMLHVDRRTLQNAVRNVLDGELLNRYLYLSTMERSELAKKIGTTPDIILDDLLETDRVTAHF
UniProt Q9Y2B0: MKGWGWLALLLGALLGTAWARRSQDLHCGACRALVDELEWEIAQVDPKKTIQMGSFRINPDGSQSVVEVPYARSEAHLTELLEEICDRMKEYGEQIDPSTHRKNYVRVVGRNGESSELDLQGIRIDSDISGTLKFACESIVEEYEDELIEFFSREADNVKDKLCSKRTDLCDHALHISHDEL
UniProt Q6PJW8: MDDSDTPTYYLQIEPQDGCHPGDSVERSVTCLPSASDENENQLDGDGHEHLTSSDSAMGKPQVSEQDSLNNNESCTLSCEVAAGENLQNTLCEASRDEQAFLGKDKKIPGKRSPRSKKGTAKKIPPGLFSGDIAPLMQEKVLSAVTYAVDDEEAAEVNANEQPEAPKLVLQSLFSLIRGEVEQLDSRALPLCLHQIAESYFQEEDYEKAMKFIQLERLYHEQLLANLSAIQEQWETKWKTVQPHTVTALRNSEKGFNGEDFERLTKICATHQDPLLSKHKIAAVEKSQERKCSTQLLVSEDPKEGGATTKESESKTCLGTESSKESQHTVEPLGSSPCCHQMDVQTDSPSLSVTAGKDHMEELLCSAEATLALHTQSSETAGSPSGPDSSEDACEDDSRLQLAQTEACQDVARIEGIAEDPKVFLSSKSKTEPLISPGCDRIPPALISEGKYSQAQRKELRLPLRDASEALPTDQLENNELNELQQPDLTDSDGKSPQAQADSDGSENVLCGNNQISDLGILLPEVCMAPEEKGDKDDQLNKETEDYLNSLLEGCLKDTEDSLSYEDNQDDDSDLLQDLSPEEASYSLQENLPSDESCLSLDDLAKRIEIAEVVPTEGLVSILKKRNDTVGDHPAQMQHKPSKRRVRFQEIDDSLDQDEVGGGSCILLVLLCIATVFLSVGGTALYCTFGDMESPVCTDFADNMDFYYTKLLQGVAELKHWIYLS
UniProt Q9GZY4: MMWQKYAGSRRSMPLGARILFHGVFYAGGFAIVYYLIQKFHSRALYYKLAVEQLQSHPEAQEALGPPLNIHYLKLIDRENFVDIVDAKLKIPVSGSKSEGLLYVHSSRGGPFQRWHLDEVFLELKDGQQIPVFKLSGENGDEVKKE
UniProt Q9NZJ6: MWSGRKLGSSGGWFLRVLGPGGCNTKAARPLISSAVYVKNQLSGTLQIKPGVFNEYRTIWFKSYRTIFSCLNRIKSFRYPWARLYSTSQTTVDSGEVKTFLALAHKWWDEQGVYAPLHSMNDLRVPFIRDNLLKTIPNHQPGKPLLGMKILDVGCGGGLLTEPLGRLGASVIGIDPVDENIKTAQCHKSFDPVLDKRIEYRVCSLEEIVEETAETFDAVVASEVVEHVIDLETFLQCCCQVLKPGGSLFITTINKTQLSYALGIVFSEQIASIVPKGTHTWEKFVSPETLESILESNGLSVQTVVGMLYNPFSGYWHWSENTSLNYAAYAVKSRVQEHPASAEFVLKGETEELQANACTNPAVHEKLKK
UniProt O95639, whole entry, looked up: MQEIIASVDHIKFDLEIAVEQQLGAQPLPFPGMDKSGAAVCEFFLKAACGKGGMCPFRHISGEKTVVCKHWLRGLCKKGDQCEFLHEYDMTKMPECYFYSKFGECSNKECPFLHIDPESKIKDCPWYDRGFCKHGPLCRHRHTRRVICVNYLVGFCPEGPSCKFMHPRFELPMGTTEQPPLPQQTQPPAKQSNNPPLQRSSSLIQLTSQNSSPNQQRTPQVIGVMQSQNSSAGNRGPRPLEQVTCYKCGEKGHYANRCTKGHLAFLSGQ
UniProt Q9Y6G5, whole entry, looked up: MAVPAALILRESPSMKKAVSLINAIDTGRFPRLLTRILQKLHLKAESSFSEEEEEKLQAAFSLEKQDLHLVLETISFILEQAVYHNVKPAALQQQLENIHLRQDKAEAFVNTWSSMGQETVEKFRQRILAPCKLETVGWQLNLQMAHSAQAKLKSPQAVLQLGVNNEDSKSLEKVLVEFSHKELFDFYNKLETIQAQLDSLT
UniProt Q9P000, whole entry, looked up: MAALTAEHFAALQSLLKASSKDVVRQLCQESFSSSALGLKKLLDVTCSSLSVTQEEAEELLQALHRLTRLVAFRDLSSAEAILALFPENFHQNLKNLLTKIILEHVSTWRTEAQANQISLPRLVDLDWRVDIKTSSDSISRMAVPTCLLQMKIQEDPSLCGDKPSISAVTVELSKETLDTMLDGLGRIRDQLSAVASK
UniProt Q17RY0: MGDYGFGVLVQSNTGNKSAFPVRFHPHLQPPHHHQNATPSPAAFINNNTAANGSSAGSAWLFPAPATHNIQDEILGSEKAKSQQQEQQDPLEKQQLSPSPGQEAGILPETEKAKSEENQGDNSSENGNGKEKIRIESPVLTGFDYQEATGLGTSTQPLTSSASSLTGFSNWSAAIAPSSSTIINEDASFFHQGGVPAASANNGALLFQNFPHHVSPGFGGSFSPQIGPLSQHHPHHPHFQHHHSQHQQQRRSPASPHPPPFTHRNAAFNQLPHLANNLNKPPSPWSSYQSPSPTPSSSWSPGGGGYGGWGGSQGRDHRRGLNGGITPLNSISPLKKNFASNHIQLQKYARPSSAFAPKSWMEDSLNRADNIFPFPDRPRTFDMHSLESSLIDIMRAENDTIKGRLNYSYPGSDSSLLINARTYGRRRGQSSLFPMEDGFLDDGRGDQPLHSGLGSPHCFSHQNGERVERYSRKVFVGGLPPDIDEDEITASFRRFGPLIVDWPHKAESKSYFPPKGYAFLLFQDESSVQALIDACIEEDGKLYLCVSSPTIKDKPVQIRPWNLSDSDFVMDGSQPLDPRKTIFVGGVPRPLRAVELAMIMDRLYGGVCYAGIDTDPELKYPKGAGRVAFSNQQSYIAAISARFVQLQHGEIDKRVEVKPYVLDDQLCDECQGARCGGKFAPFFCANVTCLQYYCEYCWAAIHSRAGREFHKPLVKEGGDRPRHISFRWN

compound: C1=CC2=C(C=CC(=C2)/C=C\3/C(=O)NC(=NCC4=CC=CS4)S3)N=C1; assay: log2 fold change, soluble protein after heating vs DMSO (PISA); higher = thermal stabilisation; K562 lysate, 10 uM; active = over 0.2 and 3.5 SD of the protein, either way, in both replicates (recomputed)
In short: (§1)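 Quantification was by TMTpro 16plex LC-MS/MS with equalised channel sums, applied to the supernatant after 21,000xg for 90 min. Samples were crude K562 extract at 1 mg/mL protein in PBS pH 7.4 with 1 mM MgCl2, treated with 10 μM compound for 30 min, heated for 3 min across 48°C-58°C, pooled and brought to 0.5% NP-40 at 4°C. Values are log-two fold changes in thermal stability relative to solvent controls, from duplicates.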

log2 fold change, inactive:
CNOT10 (UniProt Q9H9A5) 0.027, COPA isoform 2 (UniProt P53621) -0.002, COPS3 (UniProt Q9UNS2) -0.011, COX7A2 (UniProt P14406) -0.053, CNOT6 (UniProt Q9ULM6) -0.067, CNOT7 (UniProt Q9UIV1) 0.03, CNOT3 (UniProt O75175) 0.002, COX5A (UniProt P20674) 0.068, COPRS (UniProt Q9NQ92) 0.007, COQ7 (UniProt Q99807) 0.011, COTL1 (UniProt Q14019) -0.006, COX11 (UniProt Q9Y6N1) 0.029, CRADD (UniProt P78560) -0.032, COMMD1 (UniProt Q8N668) 0.032, CNOT1 (UniProt A5YKK6) -0.022, CPSF7 isoform 3 (UniProt Q8N684) -0.006, COMTD1 (UniProt Q86VU5) 0.044, COX18 (UniProt Q8N8Q8) 0.004, COX19 (UniProt Q49B96) -0.048, COPZ1 isoform 4 (UniProt P61923) -0.036, CPSF1 (UniProt Q10570) -0.01, CNPY2 (UniProt Q9Y2B0) 0.006, CNST (UniProt Q6PJW8) 0.01, COA1 (UniProt Q9GZY4) -0.028, COPS7B (UniProt Q9H9Q2) 0.006, COQ3 (UniProt Q9NZJ6) -0.136, CNTN4 (UniProt Q8IWV2) -0.03, COX4I1 (UniProt P13073) -0.008, CPPED1 (UniProt Q9BRF8) 0.012, COPS4 (UniProt Q9BT78) -0.005, CPSF4 (UniProt O95639) -0.023, COMMD10 (UniProt Q9Y6G5) 0.009, CPD (UniProt O75976) -0.01, CORO1C isoform 3 (UniProt Q9ULV4) -0.01, CNOT4 isoform 6 (UniProt O95628) 0.017, COMMD9 (UniProt Q9P000) 0.002, COL18A1 (UniProt P39060) 0.069, CPEB4 (UniProt Q17RY0) -0.044, COX15 (UniProt Q7KZN9) -0.013, COX6A1 (UniProt P12074) -0.017

compound: C1=CC2=NC=CN=C2C=C1/C=C/3\C(=O)NC(=O)S3; assay: as above
In short: as §1

log2 fold change, inactive:
CNOT10 (UniProt Q9H9A5) 0.013, COPA isoform 2 (UniProt P53621) -0.004, COPS3 (UniProt Q9UNS2) -0.027, COX7A2 (UniProt P14406) 0.026, CNOT6 (UniProt Q9ULM6) 0.026, CNOT7 (UniProt Q9UIV1) -0.019, CNOT3 (UniProt O75175) -0.004, COX5A (UniProt P20674) 0, COPRS (UniProt Q9NQ92) -0.097, COQ7 (UniProt Q99807) -0.006, COTL1 (UniProt Q14019) -0.02, COX11 (UniProt Q9Y6N1) -0.013, CRADD (UniProt P78560) 0.025, COMMD1 (UniProt Q8N668) -0.053, CNOT1 (UniProt A5YKK6) 0.009, CPSF7 isoform 3 (UniProt Q8N684) -0.032, COMTD1 (UniProt Q86VU5) 0.021, COX18 (UniProt Q8N8Q8) 0.024, COX19 (UniProt Q49B96) 0.028, COPZ1 isoform 4 (UniProt P61923) -0.142, CPSF1 (UniProt Q10570) -0.037, CNPY2 (UniProt Q9Y2B0) 0.023, CNST (UniProt Q6PJW8) -0.004, COA1 (UniProt Q9GZY4) -0.038, COPS7B (UniProt Q9H9Q2) 0.011, COQ3 (UniProt Q9NZJ6) -0.03, CNTN4 (UniProt Q8IWV2) 0.053, COX4I1 (UniProt P13073) 0.011, CPPED1 (UniProt Q9BRF8) 0.011, COPS4 (UniProt Q9BT78) -0.01, CPSF4 (UniProt O95639) -0.046, COMMD10 (UniProt Q9Y6G5) -0.012, CPD (UniProt O75976) -0.008, CORO1C isoform 3 (UniProt Q9ULV4) -0.023, CNOT4 isoform 6 (UniProt O95628) 0.009, COMMD9 (UniProt Q9P000) -0.05, COL18A1 (UniProt P39060) 0.01, CPEB4 (UniProt Q17RY0) 0.084, COX15 (UniProt Q7KZN9) 0.016, COX6A1 (UniProt P12074) -0.037
